Measurements reported in PubChem BioAssay AID1259327 (Drosophila RNAi Screening Center, 2017)
Test: 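Baseline ATP after transmembrane-protein gene knock-down with water vehicle only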. Cell system: Drosophila S2R+ cells. Reagent: long dsRNA against Drosophila genes. Duration: 5 days (water added on day 4, read one day later). Treatment: water added as vehicle, no metal, one day before read-out. Measurement: 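Total ATP measured by luciferase light, scaled to plate mean, duplicates averaged, then z-scored across plates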. Direction: ATP z-score: higher = more total ATP than typical wells; ATP luminescence: higher = more total ATP. Call rule: 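Called active when the ATP z-score exceeds 1.5 or falls below -1.5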. Meaning of the calls: active = hit: ATP up or down; inactive = no clear ATP change.
In all, the deposit lists about 3,100 reagents; this is an unselected part. 378 of all reagents (12%) count as active. 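Hits include both directions; z-score sign shows ATP rise or fall; raw luminescence values are not plate-normalised.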 A number with no mark means an inactive call. Names joined by + are all predicted targets of the reagent. The record does not give: the amount of reagent.

Target gene	amplicon	ATP z-score, duplicate mean	ATP luminescence, replicate 1 (RLU)	ATP luminescence, replicate 2 (RLU)
CG11155	DRSC17184	0.29	9.61e5	9.07e5
CG11155	DRSC17205	-0.146	7.20e5	6.62e5
CG11155	DRSC29324	0.113	8.75e5	8.01e5
Sln	DRSC07133	0.702	6.59e5	7.08e5
Sln	DRSC24171	0.408	9.08e5	8.94e5
Or71a	DRSC11244	-0.829	8.26e5	7.50e5
Or71a	DRSC39566	-0.5	4.43e5	4.19e5
hid	DRSC25461	1.04	9.21e5	1.04e6
hid	DRSC39717	-0.85	3.93e5	4.22e5
MstProx + Mst84Da	DRSC12597	-0.159	8.67e5	8.83e5
sbm	DRSC20185	-1.61 (active)	4.86e5	7.43e5
CG7084	DRSC16194	0.601	8.15e5	7.22e5
CG7084	DRSC39839	0.0498	4.99e5	4.64e5
Ir7f	DRSC18012	0.434	8.92e5	6.81e5
CG13810	DRSC22838	1.35	6.15e5	7.73e5
CG13810	DRSC27859	1.1	8.91e5	9.23e5
Or43b	DRSC07486	-0.453	5.28e5	6.30e5
Or43b	DRSC29565	0.144	9.40e5	7.49e5
CG2736	DRSC04314	0.134	7.25e5	7.66e5
CG2736	DRSC39898	1.9 (active)	8.21e5	6.64e5
zyd	DRSC20716	-1.07	5.90e5	6.65e5
zyd	DRSC39493	0.0346	4.86e5	4.26e5
Tsp42Eg	DRSC06112	1.37	7.25e5	1.03e6
VGlut	DRSC21821	-1.14	4.83e5	4.84e5
VGlut	DRSC39749	0.0249	4.54e5	4.81e5
TyrRII	DRSC25254	-0.434	8.20e5	7.26e5
CG9444	DRSC16493	1.33	4.04e5	7.92e5
CG5002	DRSC06911	0.655	8.27e5	7.74e5
CG4476	DRSC10424	-0.412	9.04e5	7.83e5
CG4476	DRSC25362	0.278	9.49e5	7.72e5
CG7582	DRSC16261	0.398	6.75e5	7.55e5
CG7582	DRSC39773	-0.795	4.02e5	4.46e5
ldd	DRSC20558	-0.236	6.99e5	7.36e5
ldd	DRSC22696	-0.48	4.86e5	5.93e5
CG11961	DRSC06099	0.576	7.91e5	7.95e5
CG11961	DRSC39529	-0.476	4.56e5	3.89e5
fra	DRSC07621	0.0491	6.59e5	5.89e5
CG12490	DRSC04123	0.287	6.75e5	8.37e5
CG17929	DRSC15291	2.43 (active)	2.95e5	1.31e6
CG17929	DRSC39673	1.92 (active)	5.74e5	6.18e5
Ten-a	DRSC19864	0.263	7.78e5	7.64e5
Ten-a	DRSC20290	-0.665	5.95e5	1.03e6
CG6928	DRSC10749	-0.557	6.79e5	6.64e5
CG6928	DRSC39754	-0.061	4.29e5	4.94e5
CG12446	DRSC20618	-0.167	7.01e5	7.49e5
CG7342	DRSC16230	-0.0431	7.28e5	6.75e5
CG7342	DRSC39501	-0.607	4.20e5	4.06e5
CG1572	DRSC19686	0.518	7.40e5	7.77e5
Or43a	DRSC07485	1.22	7.84e5	6.76e5
CG14194	DRSC19549	1.8 (active)	7.92e5	1.09e6
Nup98-96	DRSC14209	-0.0634	7.33e5	6.66e5
Nup98-96	DRSC14210	-2.85 (active)	1.75e5	4.45e5
Or74a	DRSC11245	-0.344	8.43e5	8.57e5
AkhR	DRSC03329	0.0443	4.48e5	5.18e5
AkhR	DRSC28694	-0.365	9.47e5	6.26e5
Ir7d	DRSC18010	0.011	4.43e5	7.81e5
fend	DRSC17601	-0.721	5.68e5	5.41e5
fend	DRSC17867	0.62	6.60e5	6.91e5
CLS	DRSC15642	-0.561	2.76e5	6.96e5
CLS	DRSC28289	-0.581	7.49e5	7.57e5
CG31272	DRSC16058	-0.361	2.91e5	7.01e5
CG31272	DRSC37457	0.248	5.89e5	6.12e5
ppk30	DRSC15302	0.765	6.67e5	6.82e5
ppk30	DRSC39594	1.23	4.75e5	6.25e5
CG9903	DRSC20213	-0.0342	7.43e5	8.04e5
CG9903	DRSC39657	0.426	4.35e5	5.55e5
Vha16-2	DRSC10873	0.2	9.33e5	9.11e5
Vha16-2	DRSC25504	0.44	9.06e5	9.04e5

Active calls (from the list above):
Target gene	amplicon	ATP z-score, duplicate mean	ATP luminescence, replicate 1 (RLU)	ATP luminescence, replicate 2 (RLU)
sbm	DRSC20185	-1.61 (active)	4.86e5	7.43e5
CG2736	DRSC39898	1.9 (active)	8.21e5	6.64e5
CG17929	DRSC15291	2.43 (active)	2.95e5	1.31e6
CG17929	DRSC39673	1.92 (active)	5.74e5	6.18e5
CG14194	DRSC19549	1.8 (active)	7.92e5	1.09e6
Nup98-96	DRSC14210	-2.85 (active)	1.75e5	4.45e5
